Laboratory results taken from patent publication WO2012017069A1.
Results are given in words; binding and its absence hold for the method and conditions named. Some binding calls cover weakened binding; strength is not graded here. Tags and fused reporters may be left off the sequences shown.

What was measured:
[1] = target: fusion protein according to the invention with linker peptide according to SEQ ID No. 2 (human) (UniProt P05455); experiment: SPR, dimerisation (Fig. 8G)
[2] = target: fusion protein according to the invention with linker peptide according to SEQ ID No. 2 (human) (UniProt P05455); experiment: SPR, fusion protein with linker peptide SEQ ID No. 2 coupled to the chip (Fig. 8G)

binding [1]: binds
binding [2]: binds
B1: fusion protein according to the invention with linker peptide according to SEQ ID No. 2 (peptide, not shown: large carriers)
chain: WEVLEGEVEKEALKKIIEDQQESLNKWKSKGRRFKGKGKGNK
